No constants are given. Whether binding was seen depends on the method and setting. Binding seen in cells or lysates may run through a third protein. Binding can be weak; no strength is given.
Experiments:
[1] = biological target: T1, Repressor element 1-silencing transcription factor (REST), overexpressed in H4 astrocytes (UniProt Q13127); assay: co-IP; 400 μg nuclear extract of H4 astrocytes overexpressing REST, 2 μg antibody, protein A/G-agarose overnight at 4 °C, washed with RIPA buffer, extracts treated with DNase I; Western blot; which antibody precipitated is not told
T1 sequence: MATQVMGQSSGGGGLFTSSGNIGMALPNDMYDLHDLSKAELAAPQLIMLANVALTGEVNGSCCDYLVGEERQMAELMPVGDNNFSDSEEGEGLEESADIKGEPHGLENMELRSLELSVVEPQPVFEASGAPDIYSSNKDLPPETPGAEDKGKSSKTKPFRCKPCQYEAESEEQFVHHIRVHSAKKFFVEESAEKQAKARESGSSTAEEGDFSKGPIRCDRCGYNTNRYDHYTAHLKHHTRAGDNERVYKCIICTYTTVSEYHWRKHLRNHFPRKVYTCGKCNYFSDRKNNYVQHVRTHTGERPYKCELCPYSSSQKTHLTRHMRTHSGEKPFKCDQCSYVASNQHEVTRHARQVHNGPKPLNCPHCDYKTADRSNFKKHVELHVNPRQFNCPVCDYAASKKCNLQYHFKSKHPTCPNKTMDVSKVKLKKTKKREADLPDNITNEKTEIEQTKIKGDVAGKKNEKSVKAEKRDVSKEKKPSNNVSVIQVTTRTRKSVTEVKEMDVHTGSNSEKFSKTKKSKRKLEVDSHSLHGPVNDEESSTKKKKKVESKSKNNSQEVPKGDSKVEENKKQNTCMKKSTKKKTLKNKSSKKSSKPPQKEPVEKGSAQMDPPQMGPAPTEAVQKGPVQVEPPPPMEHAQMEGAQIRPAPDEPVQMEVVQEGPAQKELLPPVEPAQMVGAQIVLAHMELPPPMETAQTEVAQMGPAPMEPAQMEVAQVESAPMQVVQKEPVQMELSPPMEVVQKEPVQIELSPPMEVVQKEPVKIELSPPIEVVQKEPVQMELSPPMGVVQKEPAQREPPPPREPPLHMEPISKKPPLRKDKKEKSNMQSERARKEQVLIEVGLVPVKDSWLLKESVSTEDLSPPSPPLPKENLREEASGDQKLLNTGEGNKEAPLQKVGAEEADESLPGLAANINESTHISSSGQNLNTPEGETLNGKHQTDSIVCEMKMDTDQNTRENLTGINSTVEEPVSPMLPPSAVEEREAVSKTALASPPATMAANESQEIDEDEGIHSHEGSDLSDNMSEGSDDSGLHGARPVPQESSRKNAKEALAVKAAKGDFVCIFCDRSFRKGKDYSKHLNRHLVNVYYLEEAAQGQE

[2] = biological target: T2, Repressor element 1-silencing transcription factor (REST) in H4 astrocytes (proximity ligation assay) (UniProt Q13127); assay: proximity ligation; H4 astrocytes fixed with 4% formaldehyde; primary antibodies for REST, CBP/p300 and/or CREB (1:250, 4 °C overnight); PLA puncta in the nuclear region; also done with DN-REST, said to interfere with the complexing
T2 sequence: T1 sequence

For “CREB-binding protein (CBP)/p300 (human (endogenous in H4))”, the binding [1] was “binds” and the binding [2] was “binds”.
